This passage reports binding results from PMC4901042.

Chains of the proteins cited; added tags and fusions are not shown.
UniProt O64645: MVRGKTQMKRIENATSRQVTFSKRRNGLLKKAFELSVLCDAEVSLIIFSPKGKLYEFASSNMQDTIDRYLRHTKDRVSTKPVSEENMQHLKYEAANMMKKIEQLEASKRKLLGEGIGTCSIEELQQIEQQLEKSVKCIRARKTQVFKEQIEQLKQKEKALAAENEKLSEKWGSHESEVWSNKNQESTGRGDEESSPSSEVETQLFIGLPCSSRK

Experiment in all cases: two-hybrid; Matchmaker Two-Hybrid System (Clontech); pGBKT7 (BD) and pGADT7 (AD) fusions cotransformed in yeast; SD/-Trp/-Leu/-His/-Ade/X-α-gal (40 μg/ml) with 5 mM 3-AT; grade by the number of clones
The target of test [1] is SUPPRESSOR OF OVEREXPRESSION OF CONSTANS 1 (SOC1) of Arabidopsis (Arabidopsis) (UniProt O64645).
For test [2], the target named is …3 (SEP3) of Arabidopsis (Arabidopsis) (UniProt O22456).
The target of test [3] is T1, AGAMOUS-LIKE 24 (AGL24) of Arabidopsis (Arabidopsis) (UniProt O82794).
T1 sequence: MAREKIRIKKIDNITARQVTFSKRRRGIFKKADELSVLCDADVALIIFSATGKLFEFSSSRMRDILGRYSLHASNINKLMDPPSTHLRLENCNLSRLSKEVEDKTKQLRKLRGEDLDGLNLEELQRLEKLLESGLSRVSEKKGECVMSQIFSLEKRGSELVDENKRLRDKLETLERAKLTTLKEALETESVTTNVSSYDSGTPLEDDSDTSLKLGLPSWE

Results are given in words; binding and its absence hold for the method and conditions named. Some entries that bind do so weakly or less than the wild type.

As to “SHORT … PHASE (SVP) of Arabidopsis (from UniProt Q9FVC1-1 1-240)”, the binding entry in test [1] and in test [2] was “binds” each time.

Regarding “SUPPRESSOR OF OVEREXPRESSION OF CONSTANS 1 (SOC1) of Arabidopsis (from UniProt O64645 1-214)”, in test [3], the binding entry is on record as “binds”.
